Experimental data as given in article PMC3738497.

Biological target: T1, IRE1-3xmyc (murine IRE1α with a 3xmyc tag) (murine) (UniProt Q9Z2E3)
T1 sequence: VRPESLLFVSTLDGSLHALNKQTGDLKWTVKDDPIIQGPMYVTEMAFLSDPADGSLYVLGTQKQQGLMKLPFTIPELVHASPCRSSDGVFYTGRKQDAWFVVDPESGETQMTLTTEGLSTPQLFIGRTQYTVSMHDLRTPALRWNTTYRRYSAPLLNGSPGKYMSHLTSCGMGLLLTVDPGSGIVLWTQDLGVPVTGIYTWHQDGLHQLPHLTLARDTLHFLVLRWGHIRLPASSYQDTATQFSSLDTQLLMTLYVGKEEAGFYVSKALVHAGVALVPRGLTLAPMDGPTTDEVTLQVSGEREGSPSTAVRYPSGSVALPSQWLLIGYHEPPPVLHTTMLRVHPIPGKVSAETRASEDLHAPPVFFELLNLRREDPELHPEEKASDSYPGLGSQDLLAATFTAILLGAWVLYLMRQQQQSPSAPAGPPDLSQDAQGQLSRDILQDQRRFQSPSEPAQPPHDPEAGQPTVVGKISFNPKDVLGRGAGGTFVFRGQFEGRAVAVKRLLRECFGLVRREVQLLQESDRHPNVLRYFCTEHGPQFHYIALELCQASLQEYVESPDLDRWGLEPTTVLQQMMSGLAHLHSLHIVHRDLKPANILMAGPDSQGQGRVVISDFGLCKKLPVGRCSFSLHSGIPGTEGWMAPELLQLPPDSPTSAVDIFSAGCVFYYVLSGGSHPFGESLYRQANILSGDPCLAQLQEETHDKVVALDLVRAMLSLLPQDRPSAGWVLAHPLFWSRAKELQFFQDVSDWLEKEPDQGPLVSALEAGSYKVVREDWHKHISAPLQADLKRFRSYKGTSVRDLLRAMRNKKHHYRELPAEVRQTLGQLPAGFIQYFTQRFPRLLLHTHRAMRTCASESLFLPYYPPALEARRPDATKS
Assay: co-IP; 10.1 fibroblasts stably expressing myc-tagged IRE1 infected with MCMV-M50HA or MCMV-HAm41 at an MOI of 4; lysates 17 and 31 hpi; IRE1 precipitated with an anti-myc antibody; HA-tagged proteins detected by immunoblot

HA-tagged m41 expressed from MCMV-HAm41 (murine cytomegalovirus (MCMV))
binding: no binding

HA-tagged M50 expressed from MCMV-M50HA (murine cytomegalovirus (MCMV))
binding: binds

Results are given in words; binding and its absence hold for the method and conditions named. In cells and extracts the contact can be indirect. Binding can be weak; no strength is given. Sequences can lack the tags named with a protein.
